This assay concerns the target IκB kinase γ (IKKγ) (rat (endogenous in HBZY-1 GMCs)) (UniProt Q6TMG5). Briefly: co-IP; lysates of rat GMCs (5.6 mmol/L glucose, 30 mmol/L glucose or mannitol for 24 h; with or without PIASy siRNA) precipitated with anti-IKKγ antibody for 12 h at 4°C and protein A/G Sepharose; blot with anti-SUMO1 or anti-SUMO2/3 antibody; normal rabbit IgG as negative control.

The chains behind the UniProt entries cited, without tags or fusion partners. Residues count along the entry.
UniProt Q6TMG5: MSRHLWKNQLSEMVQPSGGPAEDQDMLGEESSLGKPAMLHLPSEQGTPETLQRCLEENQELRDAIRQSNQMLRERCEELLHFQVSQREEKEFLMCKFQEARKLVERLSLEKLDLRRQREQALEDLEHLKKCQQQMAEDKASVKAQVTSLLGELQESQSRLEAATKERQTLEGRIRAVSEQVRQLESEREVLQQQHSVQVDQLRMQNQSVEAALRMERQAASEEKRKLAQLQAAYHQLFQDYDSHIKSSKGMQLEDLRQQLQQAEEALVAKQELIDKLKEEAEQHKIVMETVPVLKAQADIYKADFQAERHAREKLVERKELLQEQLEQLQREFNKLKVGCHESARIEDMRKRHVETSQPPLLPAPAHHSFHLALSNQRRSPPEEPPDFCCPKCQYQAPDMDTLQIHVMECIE
UniProt Q5I0H3, residues 1-97: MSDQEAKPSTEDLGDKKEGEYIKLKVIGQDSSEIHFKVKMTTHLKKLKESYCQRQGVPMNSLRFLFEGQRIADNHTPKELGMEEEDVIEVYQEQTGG

Results are given in words; binding and its absence hold for the method and conditions named. Binding seen in cells or lysates may run through a third protein. Some entries that bind do so weakly or less than the wild type.

For the substance SUMO1 (from UniProt Q5I0H3 1-97), the binding entry is on record as “binds”.

(Values after paper PMC5605875.)
